{
  "source": "patent US20090176664A1",
  "about": "“High density peptide arrays containing kinase or phosphatase substrates” (priority 2007, published 2009)",
  "system": "Src and Abl kinases",
  "assay": "Kinase inhibition assay with different kinase inhibitors on peptide array with Abl and Src peptide substrates",
  "assay_type": "biochemical",
  "settings": "FIG. 23; Src and Abl kinases plus one of three inhibitors",
  "protocol": "Activity is measured using peptide arrays with Abl and Src peptide substrates.",
  "note": "At least one compound was matched to its structure with a doubt left.",
  "data": [
    {"molecule": "Cc1nc(Nc2ncc(C(=O)Nc3c(C)cccc3Cl)s2)cc(N2CCN(CCO)CC2)n1", "note": "[Dasatinib]", "values": [
      {"measurement": "specificity of the kinase inhibitor for their respective kinase", "result": "expected specificity"}
    ]}
  ]
}
